Measurements taken from PubChem BioAssay AID248 (DTP/NCI, 2004).
The list does not hold the whole screen: it gathers tests that were run many times, whatever their T/C, doses with no T/C, and many T/C values between a quarter and a half above the control. Other doses and runs of a compound stand elsewhere. T/C: endpoint of the treated group in % of that of the vehicle group. Some entries give survivors of the animals treated and no T/C: the source holds a T/C of zero for them, seemingly a mark for toxic or unscored doses. Some doses without a T/C left all or most animals alive at the check, yet need not have been tolerated: the source hardly ever lists a survival T/C far under the control, and the zero likely stands for such cases as well. Survivors were counted at the toxicity check, usually on the fifth day, unless a day is given; later deaths do not show. Schedules are NCI's codes, taken here to give the interval after Q, in days (D) or hours (H), and the number of doses after X. Some molecules as drawn cover several salts, stereoisomers or complexes of the source; a dose is that of the sample tested. Some doses were run more than once; their values stand side by side, smallest first. For survival time, the PubChem record calls one and a half times the control and up active, and a quarter to a half above the control has no call in these data; cut-offs in other NCI protocols can differ. Some T/C values are followed by the survivors on the day toxicity was checked, most often the fifth; without a count, all were alive then.

Test system: L1210 leukemia ip in BDF1 mice, survival T/C
Test: NCI In Vivo Anticancer Drug Screen. Data for tumor model L1210 Leukemia (intraperitoneal) in B6D2F1 (BDF1) mice
Conditions: higher T/C = longer survival
[1] = T/C endpoint: mean survival time, dose: 300.0 mg/kg/injection, schedule: Q01DX009 (ip), vehicle: Klucel (hydroxypropylcellulose) (HPC)

With `CCN(CC)CCNc1ccc(CO)c2sc3ccccc3c(=O)c12` the T/C (T/C endpoint: mean survival time, dose: 37.5 mg/kg/injection, schedule: Q01DX009 (ip), vehicle: saline) was 125 % of control, the T/C (T/C endpoint: mean survival time, dose: 50.0 mg/kg/injection, schedule: Q01DX009 (ip), vehicle: saline) was 125 and 142 % of control and the T/C (T/C endpoint: mean survival time, dose: 75.0 mg/kg/injection, schedule: Q01DX009 (ip), vehicle: saline) was 123, 135, 158, 178 % of control. For the same compound, the T/C (T/C endpoint: mean survival time, dose: 81.0 mg/kg/injection, schedule: Q01DX009 (ip), vehicle: Klucel (hydroxypropylcellulose) (HPC)) was 128 % of control [5 of 6 alive], the T/C (T/C endpoint: mean survival time, dose: 107.0 mg/kg/injection, schedule: Q04DX003 (ip), vehicle: saline) was 134 % of control and the T/C (T/C endpoint: mean survival time, dose: 122.0 mg/kg/injection, schedule: Q01DX009 (ip), vehicle: Klucel (hydroxypropylcellulose) (HPC)) was 130 % of control. For the same compound, the T/C (T/C endpoint: mean survival time, dose: 132.0 mg/kg/injection, schedule: Q04DX003 (ip), vehicle: saline) was 141 % of control, the survivor count (T/C endpoint: mean survival time, dose: 150.0 mg/kg/injection, schedule: Q01DX009 (ip), vehicle: saline) was 6 of 6 and the T/C (T/C endpoint: mean survival time, dose: 160.0 mg/kg/injection, schedule: Q04DX003 (ip), vehicle: saline) was 145 % of control. The T/C (T/C endpoint: mean survival time, dose: 176.0 mg/kg/injection, schedule: Q01DX009 (ip), vehicle: carboxymethylcellulose (CMC)) was 135 % of control, the survivor count (T/C endpoint: mean survival time, dose: 200.0 mg/kg/injection, schedule: Q01DX009 (ip), vehicle: Klucel (hydroxypropylcellulose) (HPC)) was 6 of 6 and the T/C (T/C endpoint: mean survival time, dose: 200.0 mg/kg/injection, schedule: Q04DX003 (ip), vehicle: saline) was 131 % of control [5 of 6 alive]. For the same compound, the survivor count (T/C endpoint: mean survival time, dose: 240.0 mg/kg/injection, schedule: Q04DX003 (ip), vehicle: saline) was 3 of 6, the T/C (T/C endpoint: mean survival time, dose: 264.0 mg/kg/injection, schedule: Q01DX001 (ip), vehicle: carboxymethylcellulose (CMC)) was 144 % of control and the T/C [1] was 146 % of control. The survivor count [1] was 6 of 6, the survivor count (T/C endpoint: mean survival time, dose: 300.0 mg/kg/injection, schedule: Q01DX009 (ip), vehicle: saline) was 2 of 6 and the T/C (T/C endpoint: mean survival time, dose: 400.0 mg/kg/injection, schedule: Q01DX001 (ip), vehicle: carboxymethylcellulose (CMC)) was 126 % of control [5 of 6 alive]. For the same compound, the survivor count (T/C endpoint: mean survival time, dose: 400.0 mg/kg/injection, schedule: Q01DX001 (ip), vehicle: saline) was 0 of 6, the survivor count (T/C endpoint: mean survival time, dose: 400.0 mg/kg/injection, schedule: Q01DX009 (ip), vehicle: carboxymethylcellulose (CMC)) was 2 of 6 and the survivor count (T/C endpoint: mean survival time, dose: 600.0 mg/kg/injection, schedule: Q01DX001 (ip), vehicle: carboxymethylcellulose (CMC)) was 0 of 6. The survivor count (T/C endpoint: mean survival time, dose: 600.0 mg/kg/injection, schedule: Q01DX009 (ip), vehicle: carboxymethylcellulose (CMC)) was 0 of 6, the T/C (T/C endpoint: median survival time, dose: 16.0 mg/kg/injection, schedule: Q03HX024 (ip), vehicle: saline) was 130 % of control and the T/C (T/C endpoint: median survival time, dose: 32.0 mg/kg/injection, schedule: Q01DX009 (ip), vehicle: saline) was 130 % of control. For the same compound, the T/C (T/C endpoint: median survival time, dose: 32.0 mg/kg/injection, schedule: Q03HX008 (ip), vehicle: saline) was 125 % of control, the T/C (T/C endpoint: median survival time, dose: 32.0 mg/kg/injection, schedule: Q03HX016 (ip), vehicle: saline) was 140 % of control and the T/C (T/C endpoint: median survival time, dose: 32.0 mg/kg/injection, schedule: Q03HX024 (ip), vehicle: saline) was 130 % of control. The T/C (T/C endpoint: median survival time, dose: 64.0 mg/kg/injection, schedule: Q01DX009 (ip), vehicle: saline) was 130 % of control, the T/C (T/C endpoint: median survival time, dose: 64.0 mg/kg/injection, schedule: Q01DX009 (oral), vehicle: saline) was 125 % of control and the T/C (T/C endpoint: median survival time, dose: 64.0 mg/kg/injection, schedule: Q01DX009 (sc), vehicle: saline) was 140 % of control. For the same compound, the T/C (T/C endpoint: median survival time, dose: 64.0 mg/kg/injection, schedule: Q03HX008 (ip), vehicle: saline) was 145 % of control, the T/C (T/C endpoint: median survival time, dose: 64.0 mg/kg/injection, schedule: Q03HX016 (ip), vehicle: saline) was 140 % of control [9 of 10 alive] and the survivor count (T/C endpoint: median survival time, dose: 64.0 mg/kg/injection, schedule: Q03HX024 (ip), vehicle: saline) was 8 of 8. The survivor count (T/C endpoint: median survival time, dose: 128.0 mg/kg/injection, schedule: Q01DX009 (ip), vehicle: saline) was 9 of 10, the T/C (T/C endpoint: median survival time, dose: 128.0 mg/kg/injection, schedule: Q01DX009 (oral), vehicle: saline) was 125 % of control and the survivor count (T/C endpoint: median survival time, dose: 128.0 mg/kg/injection, schedule: Q03HX008 (ip), vehicle: saline) was 1 of 10. For the same compound, the survivor count (T/C endpoint: median survival time, dose: 128.0 mg/kg/injection, schedule: Q03HX016 (ip), vehicle: saline) was 0 of 10, the T/C (T/C endpoint: median survival time, dose: 128.0 mg/kg/injection, schedule: Q04DX003 (ip), vehicle: saline) was 140 % of control and the T/C (T/C endpoint: median survival time, dose: 128.0 mg/kg/injection, schedule: Q08DX002 (ip), vehicle: saline) was 130 % of control. For the same compound, the survivor count (T/C endpoint: median survival time, dose: 256.0 mg/kg/injection, schedule: Q01DX001 (ip), vehicle: saline) was 1 of 10, the survivor count (T/C endpoint: median survival time, dose: 256.0 mg/kg/injection, schedule: Q01DX001 (sc), vehicle: saline) was 5 of 10 and the survivor count (T/C endpoint: median survival time, dose: 256.0 mg/kg/injection, schedule: Q01DX009 (oral), vehicle: saline) was 10 of 10. The survivor count (T/C endpoint: median survival time, dose: 256.0 mg/kg/injection, schedule: Q01DX009 (sc), vehicle: saline) was 8 of 10, the survivor count (T/C endpoint: median survival time, dose: 256.0 mg/kg/injection, schedule: Q04DX003 (ip), vehicle: saline) was 7 of 9 and the survivor count (T/C endpoint: median survival time, dose: 256.0 mg/kg/injection, schedule: Q08DX002 (ip), vehicle: saline) was 6 of 10. For the same compound, the survivor count (T/C endpoint: median survival time, dose: 512.0 mg/kg/injection, schedule: Q01DX001 (ip), vehicle: saline) was 0 of 10, the T/C (T/C endpoint: median survival time, dose: 512.0 mg/kg/injection, schedule: Q01DX001 (sc), vehicle: saline) was 130 % of control [7 of 10 alive] and the survivor count (T/C endpoint: median survival time, dose: 512.0 mg/kg/injection, schedule: Q01DX009 (oral), vehicle: saline) was 5 of 10 and 6 of 10. For the same compound, the survivor count (T/C endpoint: median survival time, dose: 512.0 mg/kg/injection, schedule: Q04DX003 (ip), vehicle: saline) was 2 of 10, the survivor count (T/C endpoint: median survival time, dose: 512.0 mg/kg/injection, schedule: Q08DX002 (ip), vehicle: saline) was 2 of 9 and the survivor count (T/C endpoint: median survival time, dose: 1024.0 mg/kg/injection, schedule: Q01DX001 (oral), vehicle: saline) was 2 of 10 and 5 of 10. For the same compound, the survivor count (T/C endpoint: median survival time, dose: 1024.0 mg/kg/injection, schedule: Q01DX001 (sc), vehicle: saline) was 0 of 10 and the survivor count (T/C endpoint: median survival time, dose: 2048.0 mg/kg/injection, schedule: Q01DX001 (oral), vehicle: saline) was 0 of 10 and 1 of 10.
